Source: PubChem BioAssay AID1159506 (NCATS, 2015).

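Luminescence from an EWS-FLI1 target-promoter (NR0B1) reporter, set against a CMV-promoter reporter, two days after silencing single genes in TC32 Ewing sarcoma cells.
Each siRNA was applied at 20 nM.
A z-score of the log NR0B1-over-CMV signal, less the median of siRNAs with the same seed; more negative means a stronger specific loss of the NR0B1 reporter.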

This is part of the screen; most of the strongest results are not listed here.
Sequences are the guide (antisense) strand, without overhang.

- UACUGAACAAGCAACACCU against RPL9 : seed-corrected z-score -0.7884
- AUACUCAUCCGUUUUCUUG against TBC1D17 : seed-corrected z-score -0.3848
- UCUCUGACGACAUUUUCCC against ARHGAP40 : seed-corrected z-score -0.3195
- UUCCAUUCACUGUUGUACU against MRGPRX2 : seed-corrected z-score -0.7768
- AUUGGGUCCAAAGAAGCGG against TCF25 : seed-corrected z-score -1.166
- UGAAUUCCACGCAAAAGCC against ZNF600 : seed-corrected z-score -0.2869
- UAUGUGAAGUAAAGUGCCG against HMOX2 : seed-corrected z-score -1.979
- AUCUUUGUGAUACUAUUUC against C3orf14 : seed-corrected z-score 1.022
- AUACAUGUCCCACAGGUGC against LOC729562 : seed-corrected z-score -1.161
- UGUUAUCAUAAGACCCAGC against LOC648149 : seed-corrected z-score -0.03205
- UAUUCCACCACCUCUCUGG against B3GNT3 : seed-corrected z-score 0.7969
- UAUACUUGAAAUACAAACC against SDR16C6P : seed-corrected z-score -1.042
- UGUUUGACACUGUCGCACG against C16orf52 : seed-corrected z-score -0.6866
- UUCAUAUGGUUGUUUAUCU against HMGB2 : seed-corrected z-score 0.3132
- UAUUGUGAUAAGGGACACC against OR8H1 : seed-corrected z-score -0.4971
- UUGUCAUACACUACCAGCA against CCNJL : seed-corrected z-score -0.14
- UUAGCUAAUAUACACCUGG against PTGES3P1 : seed-corrected z-score 1.55
- UGAAGUUCCACUUGUUGCC against MOCS1 : seed-corrected z-score 0.5573
- UAUUUUGCGAGACCCAUCC against ZFYVE1 : seed-corrected z-score -1.205
- AUAGUGAACUGGACAGUGG against CEACAM4 : seed-corrected z-score 0.1673
- UUCCACUUAAUAAUUUCUC against FAM133A : seed-corrected z-score -0.7762
- UUUUGGACAACAAUCACUC against TMEM151A : seed-corrected z-score 0.2236
- UCGGAUGUCGAGAGUCUGC against MAFK : seed-corrected z-score -1.379
- UUCGUUGACAUUGUACUUG against SCGB1C1 : seed-corrected z-score 0.1135
- UUGCGGUGAACUUCUUCCC against DTX1 : seed-corrected z-score -1.037
- AAAGCUGCAGCUUAAUUUC against CST8 : seed-corrected z-score -1.845
- CUCUGAAAAGUUCUGAUUG against SFR1P2 : seed-corrected z-score -0.383

The first 2 entries again:

Sequence	gene	seed-corrected z-score
UACUGAACAAGCAACACCU	RPL9	-0.7884
AUACUCAUCCGUUUUCUUG	TBC1D17	-0.3848